Measured values from PubChem BioAssay AID504327 (National Center for Advancing Translational Sciences (NCATS), 2011).
Several values for one entry are separate records, joined by “and”; a condition that tells them apart may be missing. Equal entries are not always repeated. The whole screen tested about 390,000 compounds, of which about 820 (0.21%) were called active. Inconclusive means that the source gave no clear call. Such entries were picked first, then a sample of the others. Calls follow the shape of the dose curve; as a rule, active = well fitted inhibition curve with a large enough effect; inconclusive = small, poorly fitted or top-dose-only effect, or another doubt; inactive = no such curve, though single readings can be large or run the other way. Potencies beside an inconclusive call are fits to weak or partial responses and may not hold up.

The chains behind the UniProt entries cited, without tags or fusion partners.
UniProt Q92830, whole entry, looked up: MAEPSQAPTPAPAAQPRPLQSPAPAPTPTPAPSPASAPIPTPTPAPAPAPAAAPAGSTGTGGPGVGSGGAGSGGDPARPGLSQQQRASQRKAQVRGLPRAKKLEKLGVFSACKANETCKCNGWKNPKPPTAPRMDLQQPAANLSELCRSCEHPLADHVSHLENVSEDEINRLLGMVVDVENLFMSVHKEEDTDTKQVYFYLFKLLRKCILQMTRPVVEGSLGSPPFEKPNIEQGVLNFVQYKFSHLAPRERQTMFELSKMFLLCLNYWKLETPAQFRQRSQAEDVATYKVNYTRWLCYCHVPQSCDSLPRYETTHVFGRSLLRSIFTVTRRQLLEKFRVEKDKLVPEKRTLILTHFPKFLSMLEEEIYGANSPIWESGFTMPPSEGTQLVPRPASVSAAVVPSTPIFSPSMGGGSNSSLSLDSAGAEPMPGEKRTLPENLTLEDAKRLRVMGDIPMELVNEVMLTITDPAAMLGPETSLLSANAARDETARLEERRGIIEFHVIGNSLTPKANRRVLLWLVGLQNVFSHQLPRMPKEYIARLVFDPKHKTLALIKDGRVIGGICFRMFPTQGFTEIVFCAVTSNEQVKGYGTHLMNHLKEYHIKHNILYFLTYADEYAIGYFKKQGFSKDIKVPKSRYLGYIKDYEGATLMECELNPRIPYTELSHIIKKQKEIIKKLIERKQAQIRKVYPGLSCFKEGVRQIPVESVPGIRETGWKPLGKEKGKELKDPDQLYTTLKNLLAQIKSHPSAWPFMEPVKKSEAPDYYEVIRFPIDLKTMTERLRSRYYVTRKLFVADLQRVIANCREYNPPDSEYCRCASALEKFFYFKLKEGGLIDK

biological target: Histone acetyltransferase KAT2A (Homo sapiens) (UniProt Q92830); assay: qHTS Assay for Inhibitors of GCN5L2; conditions: GCN5L2 HAT assay, ThioGlo1 CoA-SH fluorescence; series mostly up to 58.9 µM
How it was run: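 Enzyme at 20nM final was mixed with library compounds for 15 min at room temperature. Peptide H3(1-25) at 75uM, acetyl-CoA at 70uM and ThioGlo1 at 50uM were then added. Plates were read immediately and after 20 min (Ex340nm/Em540nm).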
Potency is read from the fitted curve at half-maximal effect.

Compound	Potency
COc1ccc(C(CC(=O)N2CCCC2)c2c(OC)cc(OC)c3ccc(=O)oc23)cc1 (stereo unspecified)	inactive
COC(=O)[C@@H]1OC(c2ccccc2)O[C@H]1C(=O)OC	inactive
CC(=O)NC1C(=O)N(Cc2ccccc2)c2ccc(Br)cc21 (stereo unspecified)	inactive
CC(C)[C@@H]1NC(=O)c2cc([N+](=O)[O-])cc(I)c2NCCCC[C@@H](C(=O)NC(CC(=O)O)C(N)=O)NC(=O)[C@H](CO)NC1=O (stereo partly specified)	inactive
CS(=O)(=O)N(CC(=O)N1CCN(Cc2ccccc2)CC1)c1cccc([N+](=O)[O-])c1	inconclusive: 0.708 µM [inhibitor, single point]
CCOC(=O)CC1C(=O)NCCN1C(=S)NC(=O)c1ccccc1OC (stereo unspecified)	inconclusive: 0.631 µM [inhibitor, full curve, poor fit]
CCCOC(=O)CN1C(=O)c2ccc(C(=O)OCCC)cc2C1=O	inconclusive: 0.447 µM [inhibitor, full curve, poor fit]
O=C(N/N=C/c1ccco1)c1cc(-c2ccc(Br)s2)[nH]n1	inconclusive: 8.91 µM [inhibitor, partial curve, poor fit]
COc1cccc(-c2ccc3ncnc(NCc4ccccc4OC)c3c2)c1	inconclusive: 39.8 µM [inhibitor, partial curve]
CCN(CC)c1ncnc2scc(C3COc4ccccc4O3)c12 (stereo unspecified)	inactive
CC(/C=C/c1ccc(C)o1)=C\C(=O)O	inconclusive: 0.794 µM [inhibitor, single point]
Oc1nc(Nc2cccc(Cl)c2)sc1/C=C1\C=Nc2ccccc21	inactive
COc1ccc(Cl)cc1NC(=O)CSc1nc2ccccc2nc1N1CCCCC1	inactive
Cc1cc(S(=O)(=O)c2cc3ccc(O)c(C)c3oc2=O)ccc1F	inconclusive: 39.8 µM [inhibitor, single point]
O=C(NCCCN1CCOCC1)c1c(F)c(F)c(F)c(F)c1F	inconclusive: 12.6 µM [inhibitor, partial curve, poor fit]
O=C(O)c1ccccc1SC1CC(=O)N(C2CCCCC2)C1=O (stereo unspecified)	inactive
COc1ccc(CCC(=O)Nc2ccc3c(c2)OCO3)cc1OC	inactive
O=C(Cc1ccccc1)Nc1cc(-c2nc3cc(Cl)ccc3o2)ccc1Cl	inactive
Cc1cc(=O)oc2cc(NS(=O)(=O)c3ccc(F)cc3)ccc12	inconclusive: 28.2 µM [inhibitor, single point]
Cc1cccc(-c2cc3nc(-c4ccccc4)cc(N4CCC5(CC4)OCCO5)n3n2)c1	inconclusive: 39.8 µM [inhibitor, single point]
Cc1cccc2sc(N(CCCN3CCOCC3)C(=O)CS(=O)(=O)c3ccc(F)cc3)nc12	inactive
O=C(C1=C(O)C(=O)N(c2nc3ccc(Cl)cc3s2)C1c1ccco1)c1ccco1 (stereo unspecified)	inconclusive: 17.8 µM [inhibitor, partial curve]

Compound	Potency
Cc1ccc(N2C(=O)C3C4C=CC(CNC(=S)Nc5ccc(F)cc5)(O4)C3C2=O)cc1 (stereo unspecified)	inactive
C#CCOCCOCCOCCNc1nc(N2CCN(C(=O)CCCCCCCCCCNC(=O)Cn3cc(CCCCCN)nn3)CC2)nc(N2CCN(C(=O)CCCCCCCCCCNC(=O)[C@@H]([C@H](C)O)n3cc(C)nn3)CC2)n1	inactive
O=C1[C@@H]2Cc3c([nH]c4ccccc34)C(c3cccc([N+](=O)[O-])c3)N2C(=O)CN1C1CCN(Cc2ccccc2)CC1 (stereo partly specified)	inconclusive: 3.16 µM [inhibitor, full curve, poor fit]
O=C1CSc2ccc(S(=O)(=O)N3CCN(c4ccccc4F)CC3)cc2N1	inconclusive: 35.5 µM [inhibitor, single point]
CCOc1ccc(C(=O)/C=C/Nc2ccc(S(=O)(=O)Nc3onc(C)c3C)cc2)cc1	inconclusive: 22.4 µM [inhibitor, single point]
Cc1cc(OC(C)C(=O)NC2CC(C)(C)NC(C)(C)C2)c2c(C)cc(=O)oc2c1 (stereo unspecified)	inconclusive: 39.8 µM [inhibitor, single point]
CCc1ccc(NC(=O)CNCc2ccc(OC)c(OC)c2)cc1	inactive
O=C1Nc2cc(Cl)ccc2Oc2cc(Oc3ccccc3)ccc21	inactive
COc1ccccc1CNC(=O)c1cc(=O)c2ccccc2o1	inconclusive: 0.631 µM [inhibitor, partial curve, poor fit]
COc1ccc2[nH]c3c(c2c1)CCN1C(=O)N([C@@H](C)C(=O)NCC2CCCO2)C(=O)[C@]31C (stereo partly specified)	inconclusive: 14.1 µM [inhibitor, partial curve]
COC(=O)c1c(NC(=O)c2ccoc2C)sc2c1CCC2	inconclusive: 39.8 µM [inhibitor, single point]
COCCn1c(=O)c(-c2ccc(OC)cc2)nc2cnc(N3CCNCC3)nc21	inconclusive: 35.5 µM [inhibitor, single point]
COc1ccc(-c2cc(C(=O)N3CCN(c4cccc(C)c4C)CC3)c3ccccc3n2)cc1OC	inactive
COc1cccc(NC(=O)CSc2nnc3[nH]c(=O)cc(-c4ccccc4)n23)c1	inactive
CC1CN(C(=O)CCC(=O)N2CCCCC2)c2ccccc2O1 (stereo unspecified)	inconclusive: 3.16 µM [inhibitor, partial curve, poor fit]
CCCCNC(=O)c1onc(CSc2cccc3ccccc23)c1C(=O)O	inactive
Cc1ccc(-c2cc(C(=O)O)c3cc(Br)ccc3n2)o1	inconclusive: 20 µM [inhibitor, partial curve]
N#CC1=C(S)N(c2ccccc2)C(c2ccc(-c3cc(Cl)ccc3Cl)o2)NC1=O (stereo unspecified)	inconclusive: 15.8 µM [inhibitor, partial curve]
O=C(CN1C(=O)S/C(=C\c2ccc(-c3cc(C(=O)O)ccc3Cl)o2)C1=O)Nc1ccc2c(c1)OCO2	inconclusive: 3.16 µM [inhibitor, full curve, poor fit]
CCCOc1ccc(C(=O)Nc2cc(-c3nn4c(C)nnc4s3)ccc2C)cc1	inactive
Cc1ccc(CN2CCN(Cc3ccccc3-c3ccco3)CC2CCO)o1 (stereo unspecified)	inconclusive: 39.8 µM [inhibitor, single point]
COc1ccccc1CNC(=O)CS(=O)(=O)Cc1ccccc1	inconclusive: 7.08 µM [inhibitor, partial curve, poor fit]

Reformatted: 3 of the compounds above
COc1ccc2[nH]c3c(c2c1)CCN1C(=O)N([C@@H](C)C(=O)NCC2CCCO2)C(=O)[C@]31C (stereo partly specified)
  Potency: inconclusive: 14.1 µM [inhibitor, partial curve]
COC(=O)c1c(NC(=O)c2ccoc2C)sc2c1CCC2
  Potency: inconclusive: 39.8 µM [inhibitor, single point]
COCCn1c(=O)c(-c2ccc(OC)cc2)nc2cnc(N3CCNCC3)nc21
  Potency: inconclusive: 35.5 µM [inhibitor, single point]

Nothing new here: an excerpt of the list.
Compound	Potency
CCCOC(=O)CN1C(=O)c2ccc(C(=O)OCCC)cc2C1=O	inconclusive: 0.447 µM [inhibitor, full curve, poor fit]
O=C(N/N=C/c1ccco1)c1cc(-c2ccc(Br)s2)[nH]n1	inconclusive: 8.91 µM [inhibitor, partial curve, poor fit]

Further entries follow.

Compound	Potency
CCn1c2ccccc2c2cc(NC(=O)C(C)C)ccc21	inconclusive: 1 µM [inhibitor, single point]
c1ccc2sc(SN3CCOCC3)nc2c1	inconclusive: 10 µM [inhibitor, partial curve] and inconclusive: 39.8 µM [inhibitor, single point]
Cc1cc(-n2c(C)cc(C(=O)CSc3nnnn3-c3ccccc3)c2C)no1	inactive
O=C1N/C(=N/NC(=O)c2cccc3ccccc23)S/C1=C\c1ccccc1OCc1ccccc1	inconclusive: 15.8 µM [inhibitor, single point]
O=C1Cc2cc(NS(=O)(=O)c3ccc([N+](=O)[O-])cc3)cc3c2N1CCC3	inactive
OC(CN1CCCCC1)Cn1c2ccccc2c2ccccc21 (stereo unspecified)	inconclusive: 1 µM [inhibitor, partial curve, poor fit]
Cc1ccc(N2CSC3=C(C#N)C(c4cccs4)CC(=O)N3C2)cc1 (stereo unspecified)	inconclusive: 20 µM [inhibitor, partial curve]
O=C(Cc1cccc(C(F)(F)F)c1)Nc1ccc(S(=O)(=O)N2CCCC2)cc1	inconclusive: 22.4 µM [inhibitor, single point]
Cc1nonc1C1CCCN1C(=O)c1cc(COc2ccc(F)cc2Cl)on1 (stereo unspecified)	inactive
O=C(COc1ccc(Cl)cc1)Nc1ccc(O)c(-c2nc3ccccc3s2)c1	inconclusive: 39.8 µM [inhibitor, single point]
CCNc1ncc2nc(-c3ccc(OC)cc3)c(=O)n(Cc3cccs3)c2n1	inactive
C#CCOCCOCCOCCNc1nc(N2CCN(C(=O)[C@H]([C@@H](C)CC)n3cc([C@@H](N)CO)nn3)CC2)nc(N2CCN(C(=O)[C@H](CCCCN)n3cc([C@@H](N)C(C)CC)nn3)CC2)n1 (stereo partly specified)	inactive
CSc1ccccc1OCc1cc(C(=O)NC(C)CCn2cccn2)no1 (stereo unspecified)	inconclusive: 44.7 µM [inhibitor, partial curve, poor fit]
COc1ccccc1N1CCN(Cc2cc(=O)c(OCC#N)co2)CC1	inconclusive: 2.82 µM [inhibitor, partial curve, poor fit]
CCn1c(C)cc(/C=C2\NC(=O)N(Cc3ccc(Cl)cc3)C2=O)c1C	inactive
Cc1cccc(C(=O)OCC(=O)NC(=O)c2ccccc2)c1O	inconclusive: 39.8 µM [inhibitor, single point]
O=C(CSc1nc2cc(Cl)ccc2c(=O)n1Cc1ccco1)Nc1ccc(S(=O)(=O)N2CCOCC2)cc1	inactive
O=C(NC(=S)NNC(=O)c1ccccc1[N+](=O)[O-])c1ccccc1	inconclusive: 28.2 µM [inhibitor, single point]
COc1ccc(CNC(=O)CSc2ncc(S(=O)(=O)c3ccc(Br)cc3)c(=O)[nH]2)cc1	inactive
Cc1ccc(C(=O)n2nc(-c3cccnc3)nc2N)cc1	inconclusive: 4.47 µM [inhibitor, single point]
O=[N+]([O-])c1cc(/C=N\Nc2nc(-c3ccccc3)cs2)ccc1O	inconclusive: 25.1 µM [inhibitor, partial curve]
O=C(Cn1c2ncccc2c(=O)n1-c1ccccc1)Nc1ccc(Cl)cc1C(F)(F)F	inconclusive: 39.8 µM [inhibitor, single point]
